Measured data: PubChem BioAssay AID686937 (Drosophila RNAi Screening Center, 2013)
Purpose: 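Genes in the fly needed for secretion of protein constitutively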 (primary screen). System: Drosophila S2 cells expressing secreted horseradish peroxidase. Reagent: long dsRNA against Drosophila genes. Duration: about 5.5 days (5 days dsRNA, then 12 h reporter induction). Treatment: reporter expression induced after 5 days of dsRNA, read 12 h later; inducer not stated. Measured: 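Chemiluminescent measurement of peroxidase in the medium 12 h after reporter induction, following 5 days of dsRNA, given as a z-score per plate; higher means more secretion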. Scale: z-score: higher = more reporter secreted into medium.
The deposit covers about 23,000 reagents; this is an unselected part of those with a known target gene and a result. 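Reduced-secretion tags in replicate 1 do not always agree with the z-scores; no criterion for assigning the tags was given.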 Names joined by + are all predicted targets of the reagent. No sequences are given here. Not stated in the record: the amount of reagent.

| gene | dsRNA | z-score, replicate 1 | z-score, replicate 2 | z-score, replicate 3 | z-score, replicate 4 | phenotype, replicate 1 |
| --- | --- | --- | --- | --- | --- | --- |
| CG18371 | DRSC06733 | 0.24 | 0.42 | – | – | – |
| LKRSDH | DRSC03015 | 0.26 | 0.15 | – | – | – |
| CG6793 | DRSC10714 | 0.54 | 0.34 | – | – | – |
| tio | DRSC03739 | 0.36 | 0.22 | – | – | – |
| CG9312 | DRSC16471 | 0.39 | 0.33 | – | – | – |
| FBXO11 | DRSC16497 | 0.39 | 0.49 | – | – | – |
| CG13737 | DRSC10064 | -0.18 | -0.29 | – | – | – |
| CG5445 | DRSC19943 | -0.1 | -0.41 | – | – | – |
| CG7744 | DRSC07036 | 0.36 | 0.35 | – | – | – |
| CG42238 | DRSC03180 | 0.71 | 0.34 | – | – | – |
| CG17724 | DRSC06687 | 0.5 | 0.46 | – | – | – |
| CG31365 | DRSC15610 | 0.18 | 0.22 | – | – | – |
| CG15617 | DRSC06570 | 0.48 | 0.51 | – | – | – |
| Blm | DRSC16911 | -0.09 | 0.27 | – | – | – |
| CG13795 | DRSC02299 | 0.27 | 0.22 | – | – | – |
| bru1 | DRSC01234 | -1.43 | -0.66 | – | – | – |
| bru1 | DRSC01236 | -1.69 | -0.73 | – | – | reduced secretion |
| bru1 | DRSC01237 | 0.36 | 0.51 | – | – | – |
| bru1 | DRSC01238 | 0.28 | 0.04 | – | – | – |
| bru1 | DRSC03485 | 0.17 | 0.18 | – | – | – |
| mip130 | DRSC18575 | 0.08 | 0.2 | – | – | – |
| Ir93a | DRSC15212 | 0.32 | 0.28 | – | – | – |
| Ir93a | DRSC15213 | 0.32 | 0.39 | – | – | – |
| CG30183 | DRSC04450 | 0.19 | -0.02 | – | – | – |
| CG30183 | DRSC04472 | 0.18 | -0.13 | – | – | – |
| Pcmt | DRSC12363 | 0.25 | -7.29 | – | – | – |
| slif | DRSC11635 | 0.32 | 0.41 | – | – | – |
| CG46441 | DRSC15561 | 0.29 | 0.43 | – | – | – |
| LanB1 | DRSC03360 | 0.06 | 0.37 | – | – | – |
| CG14937 | DRSC02419 | 0.05 | 0.09 | – | – | – |
| CG30094 | DRSC22268 | -0.7 | -0.15 | – | – | – |
| CG32061 | DRSC22605 | 0.26 | -0.18 | – | – | – |
| brv1 | DRSC11076 | 0.22 | 0.21 | – | – | – |
| CG3769 | DRSC02723 | 0.11 | 0.1 | – | – | – |
| nxf4 | DRSC12548 | 0.19 | 0.27 | – | – | – |
| Sln | DRSC07133 | 0.2 | 0.22 | – | – | – |
| CG13950 | DRSC00368 | 0.31 | 0.24 | – | – | – |
| snRNP-U1-C | DRSC15804 | -2.79 | -1.26 | – | – | reduced secretion |
| djl | DRSC12578 | 0.28 | 0.24 | – | – | – |
| mei-S332 | DRSC04704 | 0.13 | 0.29 | – | – | – |
| Torsin | DRSC18570 | 0.68 | 0.59 | 0.38 | 0.46 | – |
| beat-VI | DRSC14474 | 0.29 | 0.32 | – | – | – |
| beat-VI | DRSC14727 | 0.29 | -0.06 | – | – | – |
| Tbca | DRSC15395 | 0.26 | 0.25 | – | – | – |
| CG31091 | DRSC15933 | 0.24 | 0.3 | – | – | – |
| fax | DRSC11345 | -0.68 | -1.11 | – | – | – |
| CG4282 | DRSC06865 | 0.12 | 0.28 | – | – | – |
| BBS4 | DRSC06352 | 0.81 | 0.31 | – | – | – |
| CG7017 | DRSC10762 | -1.83 | 0.35 | – | – | reduced secretion |
| betaTub85D | DRSC16910 | -2.15 | -1.15 | – | – | reduced secretion |
| ND-49 | DRSC17151 | 0.33 | 0.11 | – | – | – |
| Glyp | DRSC00752 | 0.62 | -1.18 | – | – | – |
| CG15386 + CG42371 | DRSC00400 | 0.24 | 0.31 | – | – | – |
| CG11865 | DRSC01872 | -0.36 | 0.2 | – | – | – |
| CG10479 | DRSC09733 | 0.72 | 0.64 | – | – | – |
| CG31952 | DRSC00428 | 0.24 | 0.27 | – | – | – |
| CG31952 | DRSC21997 | 0.19 | 0 | – | – | – |

In a second layout: 6 of the entries above.
{"gene": "CG13950", "dsRNA": "DRSC00368", "z-score, replicate 1": 0.31, "z-score, replicate 2": 0.24}
{"gene": "snRNP-U1-C", "dsRNA": "DRSC15804", "z-score, replicate 1": -2.79, "z-score, replicate 2": -1.26, "phenotype, replicate 1": "reduced secretion"}
{"gene": "djl", "dsRNA": "DRSC12578", "z-score, replicate 1": 0.28, "z-score, replicate 2": 0.24}
{"gene": "mei-S332", "dsRNA": "DRSC04704", "z-score, replicate 1": 0.13, "z-score, replicate 2": 0.29}
{"gene": "Torsin", "dsRNA": "DRSC18570", "z-score, replicate 1": 0.68, "z-score, replicate 2": 0.59, "z-score, replicate 3": 0.38, "z-score, replicate 4": 0.46}
{"gene": "beat-VI", "dsRNA": "DRSC14474", "z-score, replicate 1": 0.29, "z-score, replicate 2": 0.32}
